The list shows a part of the results.
Experiments:
Assay in all cases: log2 fold change, soluble protein after heating vs DMSO (PISA); higher = thermal stabilisation; K562 lysate, 10 uM; active = over 0.2 and 3.5 SD of the protein, either way, in both replicates (recomputed)
ibrutinib = compound: C=CC(=O)N1CCC[C@@H](n2nc(-c3ccc(Oc4ccccc4)cc3)c3c(N)ncnc32)C1 [ibrutinib]
How it was run: (§1)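 Quantification was by TMTpro 16plex LC-MS/MS with equalised channel sums, applied to the supernatant after 21,000xg for 90 min. Samples were crude K562 extract at 1 mg/mL protein in PBS pH 7.4 with 1 mM MgCl2, treated with 10 μM compound for 30 min, heated for 3 min across 48°C-58°C, pooled and brought to 0.5% NP-40 at 4°C. Values are log-two fold changes in thermal stability relative to solvent controls, from duplicates.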

By UniProt entry, the sequences of proteins in these tests, tags left out. Where a name states a change or a piece, a line headed by the entry shows the natural chain unless it says otherwise.
UniProt Q9HBI1: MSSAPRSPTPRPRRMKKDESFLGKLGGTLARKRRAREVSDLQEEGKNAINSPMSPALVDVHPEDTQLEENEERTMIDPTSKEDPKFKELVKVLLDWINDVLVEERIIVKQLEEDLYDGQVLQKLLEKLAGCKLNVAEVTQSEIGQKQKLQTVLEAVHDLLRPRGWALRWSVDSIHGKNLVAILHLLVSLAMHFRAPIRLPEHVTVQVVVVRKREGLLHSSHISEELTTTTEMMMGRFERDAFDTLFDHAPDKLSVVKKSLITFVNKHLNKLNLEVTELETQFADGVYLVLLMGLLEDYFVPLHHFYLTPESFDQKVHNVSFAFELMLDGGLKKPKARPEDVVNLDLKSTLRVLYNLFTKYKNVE
UniProt Q15154: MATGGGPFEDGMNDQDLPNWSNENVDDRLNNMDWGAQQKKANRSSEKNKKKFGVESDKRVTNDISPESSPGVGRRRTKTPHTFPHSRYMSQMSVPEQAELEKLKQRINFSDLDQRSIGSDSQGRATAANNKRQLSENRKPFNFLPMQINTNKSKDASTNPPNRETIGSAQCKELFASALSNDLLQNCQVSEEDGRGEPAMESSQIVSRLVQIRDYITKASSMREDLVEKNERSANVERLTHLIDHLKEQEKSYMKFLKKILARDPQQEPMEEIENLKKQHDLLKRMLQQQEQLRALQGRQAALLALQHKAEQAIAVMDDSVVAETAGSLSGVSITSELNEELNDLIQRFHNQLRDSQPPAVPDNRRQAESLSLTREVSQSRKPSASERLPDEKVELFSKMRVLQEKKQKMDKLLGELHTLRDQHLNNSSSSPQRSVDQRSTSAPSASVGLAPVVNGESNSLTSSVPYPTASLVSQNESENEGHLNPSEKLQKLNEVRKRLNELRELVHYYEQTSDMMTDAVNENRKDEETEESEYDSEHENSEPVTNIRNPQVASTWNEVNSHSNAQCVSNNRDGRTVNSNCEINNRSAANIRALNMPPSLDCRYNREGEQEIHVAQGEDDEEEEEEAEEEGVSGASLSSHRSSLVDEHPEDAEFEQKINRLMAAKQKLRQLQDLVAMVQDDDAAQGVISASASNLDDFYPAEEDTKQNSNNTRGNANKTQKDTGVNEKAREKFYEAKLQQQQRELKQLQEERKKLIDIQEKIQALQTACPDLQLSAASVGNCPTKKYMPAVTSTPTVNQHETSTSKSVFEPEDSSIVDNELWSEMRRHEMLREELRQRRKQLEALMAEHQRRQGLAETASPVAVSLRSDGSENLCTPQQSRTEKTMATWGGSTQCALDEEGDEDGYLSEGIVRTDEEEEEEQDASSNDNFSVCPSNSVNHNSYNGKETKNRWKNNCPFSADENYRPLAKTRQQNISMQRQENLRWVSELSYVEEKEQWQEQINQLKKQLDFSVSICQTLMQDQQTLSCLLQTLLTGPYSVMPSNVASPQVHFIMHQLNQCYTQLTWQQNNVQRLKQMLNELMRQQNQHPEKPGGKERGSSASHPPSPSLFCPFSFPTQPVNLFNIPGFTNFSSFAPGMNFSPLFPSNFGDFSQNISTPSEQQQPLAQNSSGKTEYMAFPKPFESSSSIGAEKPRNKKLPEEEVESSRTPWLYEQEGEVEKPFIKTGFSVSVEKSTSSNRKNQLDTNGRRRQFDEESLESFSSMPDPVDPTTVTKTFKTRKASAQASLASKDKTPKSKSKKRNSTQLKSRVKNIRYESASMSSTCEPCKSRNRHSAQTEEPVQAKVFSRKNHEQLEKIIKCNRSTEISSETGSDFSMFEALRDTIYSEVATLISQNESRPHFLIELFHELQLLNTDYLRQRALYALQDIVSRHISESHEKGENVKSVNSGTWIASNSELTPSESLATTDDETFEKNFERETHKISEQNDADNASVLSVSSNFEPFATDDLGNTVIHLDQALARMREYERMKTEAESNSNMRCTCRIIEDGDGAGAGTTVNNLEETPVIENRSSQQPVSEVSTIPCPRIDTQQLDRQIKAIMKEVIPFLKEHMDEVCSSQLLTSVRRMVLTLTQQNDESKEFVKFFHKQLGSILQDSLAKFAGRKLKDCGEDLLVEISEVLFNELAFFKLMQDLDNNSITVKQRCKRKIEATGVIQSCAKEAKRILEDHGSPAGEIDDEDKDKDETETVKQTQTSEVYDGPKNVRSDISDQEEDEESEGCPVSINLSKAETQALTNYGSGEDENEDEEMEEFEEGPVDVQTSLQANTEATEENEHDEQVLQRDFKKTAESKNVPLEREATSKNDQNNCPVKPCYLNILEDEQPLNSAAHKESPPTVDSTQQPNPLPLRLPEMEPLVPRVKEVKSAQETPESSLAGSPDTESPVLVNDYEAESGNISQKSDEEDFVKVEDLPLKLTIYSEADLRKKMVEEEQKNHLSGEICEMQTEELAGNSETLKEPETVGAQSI
UniProt Q32M88: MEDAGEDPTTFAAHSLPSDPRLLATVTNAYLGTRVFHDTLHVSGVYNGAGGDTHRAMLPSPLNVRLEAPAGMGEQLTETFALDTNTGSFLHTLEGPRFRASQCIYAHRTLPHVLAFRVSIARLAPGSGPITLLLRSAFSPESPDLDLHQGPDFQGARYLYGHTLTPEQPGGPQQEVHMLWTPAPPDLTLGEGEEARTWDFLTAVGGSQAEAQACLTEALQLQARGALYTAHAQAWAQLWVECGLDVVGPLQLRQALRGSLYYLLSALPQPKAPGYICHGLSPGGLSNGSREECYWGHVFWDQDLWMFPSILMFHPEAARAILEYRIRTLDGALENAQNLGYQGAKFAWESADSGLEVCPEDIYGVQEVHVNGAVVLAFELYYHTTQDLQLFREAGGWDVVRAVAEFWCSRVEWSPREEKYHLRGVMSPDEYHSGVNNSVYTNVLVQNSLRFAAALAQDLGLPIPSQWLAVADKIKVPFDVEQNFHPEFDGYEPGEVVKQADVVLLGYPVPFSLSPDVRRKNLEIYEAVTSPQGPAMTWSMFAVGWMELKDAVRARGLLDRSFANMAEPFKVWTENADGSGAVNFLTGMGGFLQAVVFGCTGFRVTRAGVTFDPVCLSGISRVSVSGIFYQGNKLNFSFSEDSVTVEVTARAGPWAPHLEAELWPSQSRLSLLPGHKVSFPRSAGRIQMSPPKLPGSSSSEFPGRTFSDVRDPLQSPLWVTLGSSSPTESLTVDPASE
UniProt O00628: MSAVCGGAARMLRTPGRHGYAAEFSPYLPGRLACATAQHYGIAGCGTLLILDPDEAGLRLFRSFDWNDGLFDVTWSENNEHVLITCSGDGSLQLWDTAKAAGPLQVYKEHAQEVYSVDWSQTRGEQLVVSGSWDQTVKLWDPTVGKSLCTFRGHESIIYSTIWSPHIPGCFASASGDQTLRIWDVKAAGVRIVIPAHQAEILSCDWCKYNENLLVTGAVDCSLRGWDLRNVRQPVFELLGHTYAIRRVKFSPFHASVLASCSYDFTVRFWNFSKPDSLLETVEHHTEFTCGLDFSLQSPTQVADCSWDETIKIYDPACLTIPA
UniProt P05165: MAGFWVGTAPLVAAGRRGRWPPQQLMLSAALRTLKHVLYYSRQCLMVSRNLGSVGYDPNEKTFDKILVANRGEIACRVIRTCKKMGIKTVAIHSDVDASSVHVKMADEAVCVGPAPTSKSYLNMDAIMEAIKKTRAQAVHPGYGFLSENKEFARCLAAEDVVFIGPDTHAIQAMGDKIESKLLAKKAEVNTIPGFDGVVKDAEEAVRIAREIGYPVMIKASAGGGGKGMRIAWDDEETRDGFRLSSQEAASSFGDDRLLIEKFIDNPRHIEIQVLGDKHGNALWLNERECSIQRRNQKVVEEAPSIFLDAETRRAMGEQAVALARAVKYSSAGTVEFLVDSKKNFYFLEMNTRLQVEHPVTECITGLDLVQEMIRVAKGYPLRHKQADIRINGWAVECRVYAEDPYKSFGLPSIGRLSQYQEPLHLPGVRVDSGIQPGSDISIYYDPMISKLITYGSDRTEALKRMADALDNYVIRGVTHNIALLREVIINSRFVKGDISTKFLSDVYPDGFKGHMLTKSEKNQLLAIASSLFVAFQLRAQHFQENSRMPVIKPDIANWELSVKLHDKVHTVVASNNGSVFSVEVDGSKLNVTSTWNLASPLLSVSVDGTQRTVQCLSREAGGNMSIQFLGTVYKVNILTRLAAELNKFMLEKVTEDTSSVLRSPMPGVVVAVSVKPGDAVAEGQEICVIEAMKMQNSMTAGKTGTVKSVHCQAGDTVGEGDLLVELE
UniProt Q9BVG4: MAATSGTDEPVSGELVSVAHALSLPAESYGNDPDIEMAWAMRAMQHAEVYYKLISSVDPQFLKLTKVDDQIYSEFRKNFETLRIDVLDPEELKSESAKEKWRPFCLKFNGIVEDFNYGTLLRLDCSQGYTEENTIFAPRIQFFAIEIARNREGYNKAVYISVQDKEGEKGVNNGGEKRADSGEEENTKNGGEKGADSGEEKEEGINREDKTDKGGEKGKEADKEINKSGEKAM
UniProt Q86U86, whole entry, looked up: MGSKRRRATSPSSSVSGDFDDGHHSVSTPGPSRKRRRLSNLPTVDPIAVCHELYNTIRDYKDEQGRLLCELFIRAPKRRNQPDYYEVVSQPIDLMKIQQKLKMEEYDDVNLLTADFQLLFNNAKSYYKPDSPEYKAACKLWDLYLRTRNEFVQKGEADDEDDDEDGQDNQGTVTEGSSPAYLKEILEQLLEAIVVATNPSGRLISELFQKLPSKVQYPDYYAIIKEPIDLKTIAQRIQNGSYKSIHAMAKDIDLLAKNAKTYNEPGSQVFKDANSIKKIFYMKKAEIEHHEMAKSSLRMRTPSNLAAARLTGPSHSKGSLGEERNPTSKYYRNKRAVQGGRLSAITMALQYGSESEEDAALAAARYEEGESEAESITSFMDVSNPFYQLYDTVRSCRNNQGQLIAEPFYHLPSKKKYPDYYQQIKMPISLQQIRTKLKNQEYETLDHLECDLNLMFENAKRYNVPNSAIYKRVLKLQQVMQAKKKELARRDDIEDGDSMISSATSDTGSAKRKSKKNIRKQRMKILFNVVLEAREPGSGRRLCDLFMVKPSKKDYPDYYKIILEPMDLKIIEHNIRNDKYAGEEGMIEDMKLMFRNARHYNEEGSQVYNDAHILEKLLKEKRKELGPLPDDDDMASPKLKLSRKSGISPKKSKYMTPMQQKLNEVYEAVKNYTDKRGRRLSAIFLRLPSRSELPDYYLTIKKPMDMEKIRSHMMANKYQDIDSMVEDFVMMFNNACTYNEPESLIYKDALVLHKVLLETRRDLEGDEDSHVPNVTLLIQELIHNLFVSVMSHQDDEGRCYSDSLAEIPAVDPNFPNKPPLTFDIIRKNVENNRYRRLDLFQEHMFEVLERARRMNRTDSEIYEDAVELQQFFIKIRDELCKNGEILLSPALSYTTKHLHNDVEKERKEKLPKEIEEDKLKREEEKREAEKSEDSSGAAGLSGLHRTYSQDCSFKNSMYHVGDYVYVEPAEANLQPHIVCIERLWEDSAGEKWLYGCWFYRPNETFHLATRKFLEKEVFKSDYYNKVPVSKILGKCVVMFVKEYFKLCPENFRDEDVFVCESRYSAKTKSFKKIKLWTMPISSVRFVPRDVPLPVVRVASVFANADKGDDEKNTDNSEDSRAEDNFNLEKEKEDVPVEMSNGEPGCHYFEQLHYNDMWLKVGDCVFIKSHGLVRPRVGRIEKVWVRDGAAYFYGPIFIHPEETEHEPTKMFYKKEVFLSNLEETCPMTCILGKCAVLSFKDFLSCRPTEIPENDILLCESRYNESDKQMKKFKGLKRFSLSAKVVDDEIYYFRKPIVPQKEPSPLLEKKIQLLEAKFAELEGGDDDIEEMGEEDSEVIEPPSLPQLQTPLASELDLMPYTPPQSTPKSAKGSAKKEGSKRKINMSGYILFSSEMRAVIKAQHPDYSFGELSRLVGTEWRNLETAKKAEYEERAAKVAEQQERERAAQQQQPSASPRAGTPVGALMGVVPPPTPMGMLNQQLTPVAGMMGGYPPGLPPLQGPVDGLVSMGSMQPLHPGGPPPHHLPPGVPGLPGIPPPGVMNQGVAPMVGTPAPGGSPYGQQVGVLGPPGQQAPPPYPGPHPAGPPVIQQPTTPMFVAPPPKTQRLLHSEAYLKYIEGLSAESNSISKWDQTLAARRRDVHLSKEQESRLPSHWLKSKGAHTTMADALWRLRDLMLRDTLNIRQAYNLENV
UniProt P28328: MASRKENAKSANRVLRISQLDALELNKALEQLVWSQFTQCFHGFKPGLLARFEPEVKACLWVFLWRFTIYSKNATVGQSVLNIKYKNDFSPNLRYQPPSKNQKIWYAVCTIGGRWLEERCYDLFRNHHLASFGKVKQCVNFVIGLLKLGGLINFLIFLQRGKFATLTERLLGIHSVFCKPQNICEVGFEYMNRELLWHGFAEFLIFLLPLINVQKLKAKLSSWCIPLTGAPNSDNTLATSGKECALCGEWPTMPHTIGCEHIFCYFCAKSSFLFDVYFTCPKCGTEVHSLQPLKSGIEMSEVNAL
UniProt P07737, whole entry, looked up: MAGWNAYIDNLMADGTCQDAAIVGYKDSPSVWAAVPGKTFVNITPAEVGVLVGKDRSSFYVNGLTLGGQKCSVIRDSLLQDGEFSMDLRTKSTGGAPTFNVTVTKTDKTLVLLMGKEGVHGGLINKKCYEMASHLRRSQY

[1] = compound: CC(=O)c1cnc2ccc(-c3cc(Cl)c(O)c(Cl)c3)nc2c1N[C@H]1CC[C@H](CN(C)C)CC1
How it was run: as §1

ralimetinib = compound: CC(C)(C)Cn1c(N)nc2ccc(-c3[nH]c(C(C)(C)C)nc3-c3ccc(F)cc3)nc21 [ralimetinib]
How it was run: as §1

[2] = compound: CC(C)(O)CC(=O)NCCn1ccc2ncnc(Nc3ccc(Oc4cccc(C(F)(F)F)c4)c(Cl)c3)c21
How it was run: as §1

[3] = compound: CC(C)C1=C2N=C(C=C(N2N=C1)NCC3=CC=CC=C3)NCCCCCCN
How it was run: as §1

[4] = compound: CC1=C(C(CC(=O)N1)C2=CC=C(C=C2)C(F)(F)F)C(=O)NC3=C(C=C4C(=C3)C=NN4)F
How it was run: as §1

[5] = compound: CC1=C(C2=C(C=C1)C(=O)C3=CC=CC=C3N2CCCN)C
How it was run: as §1

[6] = compound: CC1=C(C=C(C=C1)NC(=O)C2=CC(=CC=C2)C(C)(C)C#N)NC3=CC4=C(C=C3)N=CN(C4=O)C
How it was run: as §1

[7] = compound: CC1=C(C=C(C=C1)NC(=O)C2=CC(=CC=C2)N(C)C)NC(=O)C3=CC=C(C=C3)O
How it was run: as §1

[8] = compound: CC1=CC=C(C=C1)SC2=C3C=C(SC3=CN=C2)C(=O)N
How it was run: as §1

vemurafenib = compound: CCCS(=O)(=O)Nc1ccc(F)c(C(=O)c2c[nH]c3ncc(-c4ccc(Cl)cc4)cc23)c1F [vemurafenib]
How it was run: as §1

[9] = compound: CCCS(=O)(=O)Nc1ccc(F)c(C(=O)c2c[nH]c3ncc(Cl)cc23)c1F
How it was run: as §1

barasertib = compound: CCN(CCCOc1ccc2c(Nc3cc(CC(=O)Nc4cccc(F)c4)[nH]n3)ncnc2c1)CCOP(=O)(O)O [barasertib]
How it was run: as §1

[10] = compound: CC[C@@H]1C(=O)N(C)c2cnc(Nc3ccc(C(=O)NC4CCN(C)CC4)cc3OC)nc2N1C1CCCC1
How it was run: as §1

volasertib = compound: CC[C@@H]1C(=O)N(C)c2cnc(Nc3ccc(C(=O)N[C@H]4CC[C@H](N5CCN(CC6CC6)CC5)CC4)cc3OC)nc2N1C(C)C [volasertib]
How it was run: as §1

[11] = compound: CCn1c(C(=O)N(C2CC2)C2CC2)cc2c3c(ncn3C)c(Nc3cc(C)n(C)n3)nc21
How it was run: as §1

[12] = compound: CCn1cc(-c2ccnc3[nH]c(-c4cccc(CN(C)C)c4)cc23)c(-c2ccc(NC(=O)N(C)C)cc2)n1
How it was run: as §1

[13] = compound: CN1CCC(CNc2ccc3ncc(-c4cccc(OC(F)(F)F)c4)n3n2)CC1
How it was run: as §1

saracatinib = compound: CN1CCN(CCOc2cc(OC3CCOCC3)c3c(Nc4c(Cl)ccc5c4OCO5)ncnc3c2)CC1 [saracatinib]
How it was run: as §1

sotrastaurin = compound: CN1CCN(c2nc(C3=C(c4c[nH]c5ccccc45)C(=O)NC3=O)c3ccccc3n2)CC1 [sotrastaurin]
How it was run: as §1

Measured: log2 fold change

PARVB (UniProt Q9HBI1)
inactive: ibrutinib 0.01 | [1] 0 | ralimetinib -0.002 | [2] -0.008 | [3] -0.022 | [4] 0.039 | [5] -0.015 | [6] -0.026 | [7] 0.016 | [8] -0.026 | vemurafenib 0.029 | [9] 0.007 | barasertib 0.004 | [10] -0.015 | volasertib -0.079 | [11] 0.008 | [12] -0.021 | [13] 0.007 | saracatinib 0.009 | sotrastaurin 0.051

PCM1 (UniProt Q15154)
inactive: ibrutinib 0.01 | [1] 0.008 | ralimetinib -0.024 | [2] -0.046 | [3] 0.021 | [4] 0.001 | [5] -0.002 | [6] 0.035 | [7] 0.019 | [8] -0.015 | vemurafenib 0.006 | [9] -0.008 | barasertib 0.01 | [10] -0.011 | volasertib -0.026 | [11] -0.015 | [12] -0.039 | [13] -0.001 | saracatinib 0.036 | sotrastaurin 0.014

PGD (UniProt K7EPF6)
inactive: ibrutinib 0.108 | [1] -0.21 | [4] -0.017 | [6] -0.05 | [8] -0.34 | [9] 0.041 | barasertib 0.527 | volasertib -0.014 | sotrastaurin 0.109

PGGHG (UniProt Q32M88)
inactive: ibrutinib 0.035 | [1] 0 | ralimetinib 0.017 | [2] -0.032 | [3] -0.024 | [4] 0.059 | [5] -0.026 | [6] 0.023 | [7] -0.038 | [8] -0.008 | vemurafenib 0.04 | [9] 0.008 | barasertib 0.008 | [10] 0.083 | volasertib 0.013 | [11] 0.034 | [12] -0.013 | [13] 0.044 | saracatinib -0.019 | sotrastaurin -0.049

PEX7 (UniProt O00628)
inactive: ibrutinib -0.063 | [1] 0.001 | ralimetinib -0.113 | [2] 0 | [5] -0.132 | [7] -0.05 | [8] -0.026 | vemurafenib 0.059 | [9] 0.078 | barasertib 0.054 | [10] 0.038 | volasertib -0.008 | [11] 0.026 | [12] -0.173 | [13] 0.091 | saracatinib -0.046

PES1 (UniProt O00541)
inactive: ibrutinib 0.016 | [1] 0.017 | ralimetinib 0.031 | [2] -0.03 | [3] 0.006 | [4] 0.013 | [5] -0.052 | [6] 0.012 | [7] 0.003 | [8] 0.007 | vemurafenib 0.009 | [9] 0.023 | barasertib -0.019 | [10] -0.074 | volasertib -0.04 | [11] 0.017 | [12] -0.043 | [13] 0.052 | saracatinib 0.007 | sotrastaurin 0.028

PCBP2 (UniProt H3BRU6)
inactive: ibrutinib 0.046 | [1] 0.016 | ralimetinib 0.031 | [2] -0.018 | [3] -0.036 | [4] -0.055 | [5] 0.001 | [6] 0.141 | [7] 0.039 | [8] -0.031 | vemurafenib 0.13 | [9] -0.031 | barasertib -0.115 | [10] 0.085 | volasertib 0.036 | [11] -0.082 | [12] -0.041 | [13] 0.047 | saracatinib 0.1 | sotrastaurin 0.179

PCCA (UniProt P05165)
inactive: ibrutinib 0.023 | [1] 0.019 | ralimetinib 0 | [2] -0.067 | [3] -0.006 | [4] 0.041 | [5] 0.067 | [6] -0.012 | [7] -0.02 | [8] 0.035 | vemurafenib 0.026 | [9] -0.022 | barasertib 0.048 | [10] 0.052 | volasertib -0.001 | [11] 0.007 | [12] -0.017 | [13] -0.004 | saracatinib 0.051 | sotrastaurin -0.005

PBDC1 (UniProt Q9BVG4)
inactive: ibrutinib -0.044 | [1] -0.003 | ralimetinib -0.032 | [2] -0.025 | [3] 0.005 | [4] 0.043 | [5] 0.001 | [6] -0.01 | [7] -0.022 | [8] 0.005 | vemurafenib -0.022 | [9] -0.006 | barasertib 0.009 | [10] 0.003 | volasertib 0.012 | [11] 0.01 | [12] 0.037 | [13] -0.007 | saracatinib -0.009 | sotrastaurin 0.006

PDHB (UniProt P11177)
inactive: ibrutinib -0.018 | [1] 0.042 | ralimetinib -0.034 | [2] -0.033 | [3] 0.022 | [4] -0.019 | [5] -0.003 | [6] 0.036 | [7] 0.003 | [8] -0.005 | vemurafenib 0.047 | [9] 0.014 | barasertib -0.025 | [10] -0.009 | volasertib 0.008 | [11] 0.015 | [12] -0.028 | [13] -0.05 | saracatinib -0.009 | sotrastaurin 0.031

PBRM1 (UniProt Q86U86)
inactive: ibrutinib 0.003 | [1] -0.004 | ralimetinib 0.001 | [2] 0.031 | [3] 0.033 | [4] -0.047 | [5] 0.027 | [6] 0.063 | [7] 0.072 | [8] -0.033 | [9] 0.005 | barasertib 0.028 | [10] 0.155 | volasertib -0.064 | [11] 0.007 | [12] -0.049 | [13] -0.077 | saracatinib -0.092 | sotrastaurin -0.078

PDE6D (UniProt O43924)
inactive: ibrutinib -0.128 | [1] -0.084 | ralimetinib 0.04 | [2] 0.008 | [3] 0.038 | [4] -0.154 | [5] -0.068 | [7] 0.055 | [8] 0.025 | [9] 0.101 | barasertib 0.188 | [10] 0.121 | volasertib -0.052 | [11] -0.149 | [12] -0.006 | [13] 0.077 | saracatinib -0.026

PEX2 (UniProt P28328)
inactive: ibrutinib 0.017 | [1] -0.114 | ralimetinib 0.021 | [2] -0.098 | [3] 0.023 | [4] 0.14 | [5] -0.07 | [6] -0.002 | [7] 0.065 | [8] 0.035 | vemurafenib 0.079 | [9] -0.047 | barasertib 0.174 | volasertib 0.024 | [11] 0.052 | [12] 0.011 | [13] 0.024 | saracatinib -0.086 | sotrastaurin 0.036

PDCD6 (UniProt O75340)
inactive: ibrutinib 0.024 | [1] 0.019 | ralimetinib -0.014 | [2] -0.036 | [3] 0.008 | [4] -0.002 | [5] 0.009 | [6] -0.047 | [7] 0.011 | [8] 0.002 | vemurafenib 0.027 | [9] 0.002 | barasertib 0.28 | [10] -0.02 | volasertib -0.004 | [11] 0.007 | [12] -0.043 | [13] -0.033 | saracatinib -0.012 | sotrastaurin -0.025

PCYT1B (UniProt Q9Y5K3)
inactive: ibrutinib -0.051 | [1] -0.007 | ralimetinib 0.003 | [2] 0.013 | [3] -0.042 | [4] -0.039 | [5] -0.03 | [6] 0.016 | [7] -0.002 | [8] 0.026 | vemurafenib 0.013 | [9] 0.011 | barasertib 0.012 | [10] 0.046 | volasertib 0.017 | [11] 0.008 | [12] -0.094 | [13] 0.063 | saracatinib 0.012 | sotrastaurin -0.002

PFKFB4 (UniProt Q16877)
inactive: ibrutinib 0.022 | [1] -0.005 | ralimetinib 0.1 | [2] -0.032 | [3] -0.004 | [5] -0.008 | [6] -0.003 | [7] 0.093 | [8] 0.011 | vemurafenib 0.021 | [9] 0.005 | barasertib 0.087 | [10] 0.015 | volasertib -0.068 | [11] -0.011 | [12] 0.014 | [13] 0.007 | saracatinib 0.077 | sotrastaurin 0.043

Random excerpt: 2 entries already listed.
PCM1 (UniProt Q15154)
inactive: ibrutinib 0.01 | [1] 0.008 | ralimetinib -0.024 | [2] -0.046 | [3] 0.021 | [4] 0.001 | [5] -0.002 | [6] 0.035 | [7] 0.019 | [8] -0.015 | vemurafenib 0.006 | [9] -0.008 | barasertib 0.01 | [10] -0.011 | volasertib -0.026 | [11] -0.015 | [12] -0.039 | [13] -0.001 | saracatinib 0.036 | sotrastaurin 0.014

PCYT1B (UniProt Q9Y5K3)
inactive: ibrutinib -0.051 | [1] -0.007 | ralimetinib 0.003 | [2] 0.013 | [3] -0.042 | [4] -0.039 | [5] -0.03 | [6] 0.016 | [7] -0.002 | [8] 0.026 | vemurafenib 0.013 | [9] 0.011 | barasertib 0.012 | [10] 0.046 | volasertib 0.017 | [11] 0.008 | [12] -0.094 | [13] 0.063 | saracatinib 0.012 | sotrastaurin -0.002

Going on with the list:

PFN1 (UniProt P07737)
inactive: ibrutinib -0.018 | [1] -0.007 | ralimetinib 0.009 | [2] 0.013 | [3] -0.022 | [4] -0.017 | [5] 0.009 | [6] 0.007 | [7] 0 | [8] 0.002 | vemurafenib -0.01 | [9] -0.01 | barasertib 0.012 | [10] 0.02 | volasertib 0.015 | [11] 0.02 | [12] -0.02 | [13] 0.028 | saracatinib -0.004 | sotrastaurin -0.005

— the supplement of paper PMC10849652
